In assay [1] the target is T1, BAS1-c-myc-YFP^N (rice (Oryza sativa)) (UniProt Q6ER94).
T1 sequence: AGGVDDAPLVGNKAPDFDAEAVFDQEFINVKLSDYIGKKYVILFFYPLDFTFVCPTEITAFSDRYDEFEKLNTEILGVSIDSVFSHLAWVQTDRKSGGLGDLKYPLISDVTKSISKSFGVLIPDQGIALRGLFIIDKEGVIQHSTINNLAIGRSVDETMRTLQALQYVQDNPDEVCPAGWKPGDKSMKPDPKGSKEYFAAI
Nature of the assay: split reporter; BiFC: YFP^N and YFP^C fusions transiently co-expressed in rice green tissue protoplasts (PEG-mediated transfection, 10-15 ug total plasmid DNA, cultured 6-16 h at room temperature); YFP signal seen by confocal microscopy.

Assay [2] concerns the target bZIP63 (Arabidopsis) (UniProt B9DGI8). The assay is described as above.

Results are given in words; binding and its absence hold for the method and conditions named. In cells and extracts the contact can be indirect. Some results given as binding are weak or reduced against the parent protein; the word gives no strength. For some assays here: Tags and fused reporters may be left off the sequences shown.

B1: OsTRX m5-HA-YFP^C (protein, UniProt Q9ZP20 60-172)
chain: CSNVVDEVVVADEKNWDSMVLGSEAPVLVEFWAPWCGPCRMIAPVIDELAKEYVGKIKCCKVNTDDSPNIATNYGIRSIPTVLMFKNGEKKESVIGAVPKTTLATIIDKYVSS
Regarding B1, the binding entry in assay [1] is given as “binds”.

B2: bZIP63 (protein, UniProt B9DGI8 1-314)
chain: MEKVFSDEEISGNHHWSVNGMTSLNRSASEWAFNRFIQESSAAADDGESTTACGVSVSSPPNVPVDSEEYRAFLKSKLNLACAAVAMKRGTFIKPQDTSGRSDNGGANESEQASLASSKATPMMSSAITSGSELSGDEEEADGETNMNPTNVKRVKRMLSNRESARRSRRRKQAHLSELETQVSQLRVENSKLMKGLTDVTQTFNDASVENRVLKANIETLRAKVKMAEETVKRLTGFNPMFHNMPQIVSTVSLPSETSNSPDTTSSQVTTPEIISSGNKGKALIGCKMNRTASMRRVESLEHLQKRIRSVGDQ
B2: the binding entry in assay [2] was “binds”.

These data come from article PMC3203094.
